Reference: patent US20080227133
Substitutions are numbered along the chain they refer to. For some assays here: Weaker means in comparison with the reference protein, sequence or condition of that experiment. Where a protein sequence is shown, tags need not be part of it.

Key:
Assay in all cases: enzyme reaction in vitro
[1] = biological target: T1, KpnI D148A (UniProt P25237); settings: similar to D148G, traces of cleavage; Mg2+; purified recombinant protein; only the site is given
T1 sequence: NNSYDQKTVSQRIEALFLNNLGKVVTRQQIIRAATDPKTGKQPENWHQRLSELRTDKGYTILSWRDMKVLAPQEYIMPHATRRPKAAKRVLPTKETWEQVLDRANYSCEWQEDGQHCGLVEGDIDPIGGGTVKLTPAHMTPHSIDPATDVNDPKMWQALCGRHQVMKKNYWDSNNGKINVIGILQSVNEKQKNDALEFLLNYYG

[2] = biological target: T2, KpnI D148G (UniProt P25237); settings: only traces of cleavage, no complete linearization at 2 uM; near-complete after 12 h; Mg2+; purified recombinant protein; only the site is given
T2 sequence: T1 sequence with A137G

[3] = biological target: T3, KpnI Q175E (UniProt P25237); settings: only traces of cleavage in large excess, no complete linearization at 2 uM; Mg2+; purified recombinant protein; only the site is given
T3 sequence: T1 sequence with A137D, Q164E

[4] = biological target: T4, KpnI wild-type (UniProt P25237); settings: complete linearization at 1 nM enzyme; 5 mM MgCl2, 37 C, 1 h; purified recombinant protein; only the site is given
T4 sequence: T1 sequence with A137D

[5] = biological target: T5, KpnI D163I (UniProt P25237); settings: NEB1 buffer, 37 C; more single-band product, reduced star activity; protein in a lysate after overexpression; only the site is given
T5 sequence: T1 sequence with A137D, D152I

[6] = biological target: T6, KpnI D163I/K165A (UniProt P25237); settings: NEB1 buffer, 37 C; same specific activity as wild type, star activity no more than 1/64 of wild type; protein in a lysate after overexpression; only the site is given
T6 sequence: T1 sequence with A137D, D152I, K154A

[7] = biological target: T7, KpnI K165A (UniProt P25237); settings: NEB1 buffer, 37 C; more single-band product, reduced star activity; protein in a lysate after overexpression; only the site is given
T7 sequence: T1 sequence with A137D, K154A

[8] = biological target: T8, KpnI wild-type (cell extract) (UniProt P25237); settings: cell extract, NEB1 buffer, 37 C; multiple bands (star activity) at undiluted extract; protein in a lysate after overexpression; only the site is given
T8 sequence: T1 sequence with A137D

| Sequence | activity on this sequence [1] | activity on this sequence [2] | activity on this sequence [3] | activity on this sequence [4] | activity on this sequence [5] | activity on this sequence [6] | activity on this sequence [7] | activity on this sequence [8] |
| --- | --- | --- | --- | --- | --- | --- | --- | --- |
| GGTACC (double strand) [pUC18 plasmid, KpnI canonical site] | less active | less active | less active | active |  |  |  |  |
| GGTACC (double strand) [pUC19 plasmid, one KpnI site] |  |  |  |  | active | active | active | active |
